Data taken from patent US20250170133A1, “PHARMACEUTICAL COMBINATIONS AND METHODS OF USE OF AMINO-PYRROLOPYRIMIDINONE COMPOUND” (Merck Sharp & Dohme LLC, priority 2022, published 2025).
At least one compound was matched to its structure with a doubt left.

Experiments:
[1] = test system: relapsed/refractory (R/R) CLL; details: monotherapy, cited from earlier work
Primary CLL cells = assay: Primary CLL cell viability by flow cytometry following Annexin V/PI staining; type: cell-based, human; details: venetoclax 5 nM, 24 hr incubation, normalized to DMSO control, p<0.0001
Protocol: Cell viability was assessed by flow cytometry following Annexin V/PI staining. Data are normalized to DMSO control. A linear mixed effect model was used to analyze raw data and p values were adjusted for multiple comparisons using Tukey's method (*, p<0.05, **, pS0.01, ***, pS0.001).

CC1(C)CCC(CN2CCN(c3ccc(C(=O)NS(=O)(=O)c4ccc(NCC5CCOCC5)c([N+](=O)[O-])c4)c(Oc4cnc5[nH]ccc5c4)c3)CC2)=C(c2ccc(Cl)cc2)C1 [venetoclax, reference compound]
overall response rate ([1]; patients with R/R CLL): 79%
patients with uMRD in the bone marrow [1]: 5%
viability of cells compared to vehicle (Primary CLL cells): significantly decreased viability
